In patent publication US20050261260A1, “Combination of a CDK inhibitor and mitoxantrone” (Cyclacel Limited, priority 2002, published 2005):
Converted amounts (≈) assume the structure as drawn. Where two headings read alike, the source gives them in different places.

Tested on: prostate tumor cells (PC-3)
Experiment: cells
Conditions: Homo sapiens, 24 h, read-out: IC50 (concentration listed as 100 % IC50), PC-3

CC[C@H](CO)Nc1nc(NCc2ccccc2)c2ncn(C(C)C)c2n1 [Roscovitine, 6-benzylamino-2-[(R)-1-ethyl-2-hydroxyethylamino]-9-isopropylpurine]
IC50 (Table 3, roscovitine 24 h then mitoxantrone 24 h): 21 µg/mL (≈ 59.2 µM)
IC50 (Table 5, mitoxantrone 24 h then roscovitine 24 h): 30 µg/mL (≈ 84.6 µM)
IC50 (Table 7, concurrent 24 h exposure): 26 µg/mL (≈ 73.4 µM)
